Binding data for one molecule are collected here from PMC7716261.

The target in the test is Δ18PA1624 (hypothetical periplasmic protein PA1624 from Pseudomonas aeruginosa PAO1 without its periplasmic localization signal) (P. aeruginosa PAO1). The test is described as follows: SEC; size-exclusion chromatography during purification, Superdex 26/600 S75 prep-grade column, buffer GF (50 mM HEPES, 150 mM NaCl pH 8.0); both purified. On the technique in general: Size exclusion chromatography separates by hydrodynamic size, large species first.

These are yes or no findings as the source states them, for the method shown.

B1: Δ18PA1624 (hypothetical periplasmic protein PA1624 from Pseudomonas aeruginosa PAO1 without its periplasmic localization signal) (protein)
chain: GPHMADLPGSHDLDILPRFPRAEIVDFRQAPSEERIYPLGAISRISGRLRMEGEVRAEGELTALTYRLPPEHSSQEAFAAARTALLKADATPLFWCERRDCGSSSLLANAVFGNAKLYGPDEQQAYLLVRLAAPQENSLVAVYSITRGNRRAYLQAEELKADAPLAELLPSPATLLRLLKANGELTLSHVPAEPAGSWLELLVRTLRLDTGVRVELSGKHAQEWRDALRGQGVLNSRMELGQSEVEGLHLNWLR
For B1, the binding entry is reported as “no binding”.
